Data set [1] addresses T1, FadRSa N37A (Sulfolobus acidocaldarius) (UniProt Q4J9S1).
T1 sequence (looked up): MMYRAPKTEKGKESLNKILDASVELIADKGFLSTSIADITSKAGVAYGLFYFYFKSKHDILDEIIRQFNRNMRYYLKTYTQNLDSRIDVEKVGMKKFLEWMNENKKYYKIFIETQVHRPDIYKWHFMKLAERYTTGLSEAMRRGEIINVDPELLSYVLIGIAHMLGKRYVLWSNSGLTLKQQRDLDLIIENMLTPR
Kind of data set: EMSA. The note with it: diminished cooperativity of B2 formation; EMSA/DNase I: 20 mM Tris-HCl pH 8.0, 1 mM MgCl2, 0.1 mM DTT, 12.5% glycerol, 50 mM NaCl, 0.4 mM EDTA, 37 C; recombinant protein; residues 1-196; protein details: C-terminal His; label: 32P 5' end.

Data set [2] addresses T2, FadRSa (Sulfolobus acidocaldarius) (UniProt Q4J9S1).
T2 sequence (looked up): T1 sequence (looked up) with A37N
Kind of data set: EMSA. As to conditions: EMSA/DNase I: 20 mM Tris-HCl pH 8.0, 1 mM MgCl2, 0.1 mM DTT, 12.5% glycerol, 50 mM NaCl, 0.4 mM EDTA, 37 C, recombinant protein, residues 1-196, label: 32P 5' end, probe letters rebuilt from the primers and the genome. (Mobility shift assays separate free from complexed probe on a gel.)

Where a chain is given by its changes, count along the chain named. A weaker result is weaker than the reference pair of the same experiment. Tags and fusion partners may be left off the protein sequences shown. For some assays here: The exact form of at least one protein or probe is not confirmed. For some assays here: At least one verdict was read from the data and is not stated in words by the source.

As to “ACTACATAGTCAGTTGATTCTAATGTCAACTTTATAAAGTGGTGT (double strand) [mutated Saci_1123 operator 45-bp]”, in data set [1], the binding result is reported as “binds more weakly”.
As for “ACTTCCTATAAAGGCACCACCTACACTTCTTCCTATTCTAAATGGTATGGACAAAAATAATACTCCTGTCGCAATAAACACAGCCACGTATTGATATACTATTTTAGAGACAGCTATAAGCGTTGAAGTAAATGTTAGTGCAGAAGTGATTACAGTTAGAAGAGCACCAAATGGTACTACTTGAATTAAAGCTGAAACTTCAGGTACTGCATTACTGGCAGTTAATATTGTTTTAACCATTAGATAGAGAGATTGTTCTATGTATAGAATATTGTTTAACCAACTAAAATAGCCGTCCCAGGTAACACCGAGAAGAGAGAGTAATTCCCCAAGGAACAATAGAACACCTAAATATATAGAATTCCATACAACTACGTAAATTGAGTCAGTAATCAGTCTCGGTGCCCATTTTTTTACACCGTATACAGGTACTGGTAATGCGTAAATTGCAGCACCAATAAAATAAGTCAATGACGCTAATAACTGTGAATAAAATAAAAGTTGAAAAGGATTTAGCATTCATGAC (double strand) [Saci_0568 peak fragment]”, the binding result in data set [2] (intermediate affinity (++)) is given as “binds more weakly”.
Consider “CCAACTACAGGTCTTAAATACAACATAAATGTCAGTAGTAATGGAAAGGGATTCATATATTACTCTAAACCTGAGAAATTTATAAAACTAGCTTAATATTTGAGATATAATTCTTGATTTGAGTTCGTCCTCAACTTCATAAAACATTGTTTCCAAAATTACCACTCAAGACTTAGAGGAAGTAAGGGAATTATCATAATCGAAAGCCTCCTAAAGCCATTCTAAAGATACGCTACATTCATTTGATTTAATGAACTGACTGTAGAATCAACTATAAATAGCTTATCTCCTCTCTCATCTCCTTCCACAAAGACAGTCAAGACCACATTCAACCTCTTCACCTTCAAAATATTTATTAAATCGAACTTATGATCCTTAACTATCCTATAACCATAGCTTTGCAATAAAATCAACACTTCAGATCTATCGAATTCCTGCGTTACACTGGGTACAACCACCCTTGTACCTATCCTGGAGCCCTCTATTTCATTTAGCGCATCTACTATATTGCCTACTACCT (double strand) [Saci_0229 peak fragment]”, for which, in data set [2] (intermediate affinity (++)), the binding result is “binds more weakly”.
As for “CCTTCTTCATCAATATCGCTCAGTACGACTTTACCTCCCATTTCTGAGAACATCTCAGCTATGGCTTTTCCTATACCACTGGATGCTCCTAAAACAACAGCATTCATGCCTTTTACTGAAAAGAGCCTATCAATGTCCATTTTTGTTCAATTTATAATTTATGTTAGCCAAAATATATTTACACTAAGACTATTGAGTGAAGCAAACATCTCCTAGTTGTGCATTTGCTCTTATCCTACTGTTAAGTCATTTGGGATATACATTACTTCCTTATTGGATCCTCCTTGCCAATATAATATGTCTCTTTGGATATCAAAATACCTATGATCATAGCTATTGATGCAATGGTCAAGTTAATGAACCATGAGTTGAGGAGTCCTATGTAGGTAGAAATTGCGAATATTATACTAATGGAAAACCCTCCAACTATAGCACCTCCATTGTAAGTGAAACCAACACCAGTTGTCCTATATTTTTTGCTGAACTGTTCACTGAGGAA (double strand) [Saci_2130 peak fragment]”, the binding result in data set [2] (specific but low affinity (+)) is listed as “binds more weakly”.
Consider “CTTCACTCCAAATCCTATTAGGAAAGCTGACACTGAACCGACCTTTTAACTACAATGATAGTCGACTCAAAAATCAAGTATAATATAGTCGAAATATGCCCTCTTGAATAAAACCATGAAATATAAATGAGTCTATTCTGATCTGATAAAGTTC (double strand) [Saci_1106 peak 1 fragment]”, for which the binding result is “binds” in data set [2] (CoA, no strong abrogation); “binds” in data set [2] (acetyl-CoA, no strong abrogation); “binds” in data set [2] (free fatty acids, no strong abrogation); “binds more weakly” in data set [2] (long-chain acyl-CoA, dissociation increases with chain length).

The record behind these values is PMC6449355, “A TetR-family transcription factor regulates fatty acid metabolism in the archaeal model organism Sulfolobus acidocaldarius” (Nature Communications, 2019).
